Source: PubChem BioAssay AID1053208 (Peter MacCallum Cancer Centre, 2014)

Purpose: 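Find knock-downs that sensitise mouse osteosarcoma cells to doxorubicin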 (primary screen)
System: mouse osteosarcoma cells, early-passage culture from an engineered mouse model of fibroblastic bone tumour
Reagents: siRNA pool against mouse genes, 40 nM
Timing: about 120 h (48 h before drug, then 72 h with drug)
Conditions: doxorubicin 100 nM for 72 h, roughly 30-40% inhibitory dose
Detection: 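Luminescent ATP signal taken as viability with or without 100 nM doxorubicin for 72 h; mean of two wells set against non-targeting siRNA and turned into robust z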
Direction: viability z-score with doxorubicin: higher = more viable cells under doxorubicin; viability z-score without drug: higher = more viable cells with knock-down alone
Active means: 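a pool counts as active when its viability z-score with doxorubicin is -2 or below and its z-score without drug lies between -2 and 2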
Here is one part, drawn at random, of about 17,000 reagents tested. 788 of them (4.7%) were called active. 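Calls rest on z-score classes alone; an extra cut-off of viability at most 70% of control was not applied to them.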 Not all columns of the deposit are shown.

Phf11a (GeneID 219131) [SID152334202]: combined z-score class = low cell count with doxorubicin only; viability z-score with doxorubicin = -2.81; viability z-score without drug = -1.52; Outcome = active
Trpa1 (GeneID 277328) [SID152269990]: combined z-score class = no change with or without drug; viability z-score with doxorubicin = -0.11; viability z-score without drug = 1.18; Outcome = inactive
Ephx2 (GeneID 13850) [SID152323973]: combined z-score class = no change with or without drug; viability z-score with doxorubicin = 0.34; viability z-score without drug = -0.51; Outcome = inactive
Chst2 (GeneID 54371) [SID152285740]: combined z-score class = no change with or without drug; viability z-score with doxorubicin = 1.69; viability z-score without drug = 0.84; Outcome = inactive
Ubqlnl (GeneID 244179) [SID152300481]: combined z-score class = no change with or without drug; viability z-score with doxorubicin = -0.79; viability z-score without drug = -0.34; Outcome = inactive
Zfp788 (GeneID 67607) [SID152286526]: combined z-score class = no change with or without drug; viability z-score with doxorubicin = 0.67; viability z-score without drug = 1.52; Outcome = inactive
Snap29 (GeneID 67474) [SID152261292]: combined z-score class = no change with or without drug; viability z-score with doxorubicin = -0.34; viability z-score without drug = -0.67; Outcome = inactive
Actl9 (GeneID 69481) [SID152269245]: combined z-score class = no change with or without drug; viability z-score with doxorubicin = -0.67; viability z-score without drug = -0.17; Outcome = inactive
Ankrd61 (GeneID 66729) [SID152260739]: combined z-score class = high cell count without drug only; viability z-score with doxorubicin = 1.35; viability z-score without drug = 2.02; Outcome = inactive
Mysm1 (GeneID 320713) [SID152310228]: combined z-score class = no change with or without drug; viability z-score with doxorubicin = -0.11; viability z-score without drug = -0.84; Outcome = inactive
Six1 (GeneID 20471) [SID152337651]: combined z-score class = no change with or without drug; viability z-score with doxorubicin = -0.45; viability z-score without drug = -0.17; Outcome = inactive
Rras2 (GeneID 66922) [SID152280925]: combined z-score class = no change with or without drug; viability z-score with doxorubicin = -0.45; viability z-score without drug = -0.17; Outcome = inactive
Edem1 (GeneID 192193) [SID152315558]: combined z-score class = no change with or without drug; viability z-score with doxorubicin = 0.11; viability z-score without drug = -0.17; Outcome = inactive
Sord (GeneID 20322) [SID152302066]: combined z-score class = no change with or without drug; viability z-score with doxorubicin = 0; viability z-score without drug = -0.51; Outcome = inactive
Sult3a1 (GeneID 57430) [SID152282352]: combined z-score class = low cell count without drug only; viability z-score with doxorubicin = 0; viability z-score without drug = -2.19; Outcome = inactive
Cpsf4l (GeneID 52670) [SID152279878]: combined z-score class = no change with or without drug; viability z-score with doxorubicin = 0; viability z-score without drug = 0.34; Outcome = inactive
Cox6b1 (GeneID 110323) [SID152332335]: combined z-score class = no change with or without drug; viability z-score with doxorubicin = 0.56; viability z-score without drug = 1.85; Outcome = inactive
Ramp2 (GeneID 54409) [SID152281669]: combined z-score class = no change with or without drug; viability z-score with doxorubicin = 0.67; viability z-score without drug = 0.17; Outcome = inactive
Dmrtc1a (GeneID 70887) [SID152333368]: combined z-score class = no change with or without drug; viability z-score with doxorubicin = 1.8; viability z-score without drug = 1.35; Outcome = inactive
Hivep3 (GeneID 16656) [SID152298437]: combined z-score class = high cell count without drug only; viability z-score with doxorubicin = 1.69; viability z-score without drug = 2.19; Outcome = inactive
Tmt1b (GeneID 71664) [SID152297870]: combined z-score class = no change with or without drug; viability z-score with doxorubicin = 0.11; viability z-score without drug = 0.17; Outcome = inactive
Tmsb10 (GeneID 19240) [SID152342145]: combined z-score class = no change with or without drug; viability z-score with doxorubicin = 0; viability z-score without drug = -0.51; Outcome = inactive
Rps24 (GeneID 20088) [SID152276336]: combined z-score class = low cell count with and without drug; viability z-score with doxorubicin = -6.41; viability z-score without drug = -6.91; Outcome = inactive
Kcnip4 (GeneID 80334) [SID152327739]: combined z-score class = no change with or without drug; viability z-score with doxorubicin = -0.22; viability z-score without drug = -1.52; Outcome = inactive
Tars2 (GeneID 71807) [SID152334820]: combined z-score class = no change with or without drug; viability z-score with doxorubicin = 0.34; viability z-score without drug = -0.17; Outcome = inactive
Rnf113a2 (GeneID 66381) [SID152309176]: combined z-score class = no change with or without drug; viability z-score with doxorubicin = -0.67; viability z-score without drug = 1.18; Outcome = inactive
4932435O22Rik (GeneID 319819) [SID152300750]: combined z-score class = no change with or without drug; viability z-score with doxorubicin = 1.35; viability z-score without drug = -1.52; Outcome = inactive
Spen (GeneID 56381) [SID152340176]: combined z-score class = no change with or without drug; viability z-score with doxorubicin = -1.24; viability z-score without drug = 0.51; Outcome = inactive

Quoted from the listing for reference:
Six1 (GeneID 20471) [SID152337651]: combined z-score class = no change with or without drug; viability z-score with doxorubicin = -0.45; viability z-score without drug = -0.17; Outcome = inactive
Rras2 (GeneID 66922) [SID152280925]: combined z-score class = no change with or without drug; viability z-score with doxorubicin = -0.45; viability z-score without drug = -0.17; Outcome = inactive
Edem1 (GeneID 192193) [SID152315558]: combined z-score class = no change with or without drug; viability z-score with doxorubicin = 0.11; viability z-score without drug = -0.17; Outcome = inactive
